Results deposited as PubChem BioAssay AID504793 (Drosophila RNAi Screening Center, 2011)

Assay: 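Knock-downs allowing continued mitosis even though DNA is damaged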 (primary screen)
Cell system: Drosophila S2R+ cells
Knock-down reagent: long dsRNA against Drosophila genes, about 0.25 µg dsRNA per well
Timing: 4 days of dsRNA, then 4 hours of drug before read-out
Treatment: doxorubicin 0.5 µM for 4 hours to cause double-strand breaks, in cells also given a low, harmless dose of dsRNA against nbs to sensitise the assay
Measurement: 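Per-well count of mitotic cells stained for phospho-histone H3 after doxorubicin exposure, used as mitotic index; counts are raw and not normalised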
Reading the numbers: mitotic cells: higher = more cells in mitosis, weaker G2 arrest
Call rule: 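a call needs confirmation in secondary tests, with other dsRNAs and a check of mitotic timing without damage, not just a high primary count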
Meaning of the calls: active = confirmed in follow-up tests; inactive = not confirmed
The screen tested about 23,000 reagents; below is a random part of those with a known target gene and a result. In the full data, 62 (0.27%) are marked active. 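Calls come from follow-up tests whose scores are not deposited, so confirmed genes may have low counts here; counts are not normalised per plate.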 Raw values are not corrected between plates. A plus sign joins genes that one reagent is predicted to hit.

Pdha [DRSC18413] — mitotic cells, replicate 1 = 25; Outcome = inactive
Pdha [DRSC27138] — mitotic cells, replicate 1 = 16; Outcome = inactive
Polr2I [DRSC16832] — mitotic cells, replicate 1 = 23; Outcome = active
CG31268 [DRSC13203] — mitotic cells, replicate 1 = 4; Outcome = inactive
CG9008 [DRSC01889] — mitotic cells, replicate 1 = 7; Outcome = inactive
CG9008 [DRSC26675] — mitotic cells, replicate 1 = 3; Outcome = inactive
CG16956 [DRSC02544] — mitotic cells, replicate 1 = 2; Outcome = inactive
MFS1 [DRSC04115] — mitotic cells, replicate 1 = 6; Outcome = inactive
MFS1 [DRSC27926] — mitotic cells, replicate 1 = 6; Outcome = inactive
CG14569 [DRSC11730] — mitotic cells, replicate 1 = 7; Outcome = inactive
CG9497 [DRSC03234] — mitotic cells, replicate 1 = 3; Outcome = inactive
CG9497 [DRSC25510] — mitotic cells, replicate 1 = 10; Outcome = inactive
CG12091 [DRSC08251] — mitotic cells, replicate 1 = 9; Outcome = inactive
CG12091 [DRSC24873] — mitotic cells, replicate 1 = 8; Outcome = inactive
ADD1 [DRSC07135] — mitotic cells, replicate 1 = 6; Outcome = inactive
ADD1 [DRSC26133] — mitotic cells, replicate 1 = 3; Outcome = inactive

Continued, starting with the last 5 of the part before.
CG9497 [DRSC25510] — mitotic cells, replicate 1 = 10; Outcome = inactive
CG12091 [DRSC08251] — mitotic cells, replicate 1 = 9; Outcome = inactive
CG12091 [DRSC24873] — mitotic cells, replicate 1 = 8; Outcome = inactive
ADD1 [DRSC07135] — mitotic cells, replicate 1 = 6; Outcome = inactive
ADD1 [DRSC26133] — mitotic cells, replicate 1 = 3; Outcome = inactive
CG18745 [DRSC15382] — mitotic cells, replicate 1 = 7; Outcome = inactive
CG18745 [DRSC30088] — mitotic cells, replicate 1 = 5; Outcome = inactive
Loxl1 [DRSC14303] — mitotic cells, replicate 1 = 9; Outcome = inactive
pnut [DRSC07666] — mitotic cells, replicate 1 = 4; Outcome = inactive
pnut [DRSC23971] — mitotic cells, replicate 1 = 8; Outcome = inactive
CG5781 [DRSC02893] — mitotic cells, replicate 1 = 7; Outcome = inactive
Pk34A [DRSC03398] — mitotic cells, replicate 1 = 5; Outcome = inactive
Pk34A [DRSC28021] — mitotic cells, replicate 1 = 11; Outcome = inactive
IKKepsilon [DRSC03550] — mitotic cells, replicate 1 = 10; Outcome = inactive
Prosalpha7 [DRSC07516] — mitotic cells, replicate 1 = 93; Outcome = inactive
Prosalpha7 [DRSC29365] — mitotic cells, replicate 1 = 119; Outcome = inactive
Spn85F [DRSC14545] — mitotic cells, replicate 1 = 6; Outcome = inactive
tst + CG10375 [DRSC14237] — mitotic cells, replicate 1 = 11; Outcome = inactive
stai [DRSC22235] — mitotic cells, replicate 1 = 8; Outcome = inactive
stai [DRSC28369] — mitotic cells, replicate 1 = 3; Outcome = inactive
l(1)G0004 [DRSC20486] — mitotic cells, replicate 1 = 5; Outcome = inactive
Pvf3 [DRSC02284] — mitotic cells, replicate 1 = 5; Outcome = inactive
Pvf3 [DRSC02285] — mitotic cells, replicate 1 = 14; Outcome = inactive
Pvf3 [DRSC02286] — mitotic cells, replicate 1 = 7; Outcome = inactive
Pvf3 [DRSC02751] — mitotic cells, replicate 1 = 6; Outcome = inactive
Pvf3 [DRSC25172] — mitotic cells, replicate 1 = 11; Outcome = inactive
Pvf3 [DRSC28641] — mitotic cells, replicate 1 = 3; Outcome = inactive
